Measurements from article PMC9876638.
These are yes or no findings as the source states them, for the method shown. In cells and extracts the contact can be indirect. Some binding calls cover weakened binding; strength is not graded here.

Chains of the proteins cited; added tags and fusions are not shown. Residues count along the entry.
UniProt P08025, residues 49-118: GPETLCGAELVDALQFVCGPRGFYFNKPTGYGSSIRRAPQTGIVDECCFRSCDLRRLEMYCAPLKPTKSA
UniProt P15473, residues 28-292: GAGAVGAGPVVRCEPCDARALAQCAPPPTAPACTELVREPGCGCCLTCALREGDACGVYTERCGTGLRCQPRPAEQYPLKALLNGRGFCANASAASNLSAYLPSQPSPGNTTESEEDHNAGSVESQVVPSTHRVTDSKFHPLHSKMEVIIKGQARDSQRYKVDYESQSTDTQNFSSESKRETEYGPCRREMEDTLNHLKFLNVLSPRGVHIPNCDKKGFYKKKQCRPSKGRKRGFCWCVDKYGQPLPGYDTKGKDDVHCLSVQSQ

Biological target: Insulin-like growth factor 1 (rat (endogenous in H9c2)) (UniProt P08025)
Experiment: co-IP; total cellular extract of H9c2 cells (with or without 1.0 uM Dox for 24 h); 500 ug protein with 3 ug primary antibody overnight at 4°C, Protein G magnetic beads, washed with PBS, eluted at 95°C, western blot; the legend calls the association extracellular

binding: binds
Substance: Insulin-like growth factor binding protein 3 (from UniProt P15473 28-292)
